Experiment [1] has as its target T1, SCD1-GFP (mouse stearoyl-CoA desaturase-1 with a C-terminal GFP tag) (mouse) (UniProt P13516).
T1 sequence: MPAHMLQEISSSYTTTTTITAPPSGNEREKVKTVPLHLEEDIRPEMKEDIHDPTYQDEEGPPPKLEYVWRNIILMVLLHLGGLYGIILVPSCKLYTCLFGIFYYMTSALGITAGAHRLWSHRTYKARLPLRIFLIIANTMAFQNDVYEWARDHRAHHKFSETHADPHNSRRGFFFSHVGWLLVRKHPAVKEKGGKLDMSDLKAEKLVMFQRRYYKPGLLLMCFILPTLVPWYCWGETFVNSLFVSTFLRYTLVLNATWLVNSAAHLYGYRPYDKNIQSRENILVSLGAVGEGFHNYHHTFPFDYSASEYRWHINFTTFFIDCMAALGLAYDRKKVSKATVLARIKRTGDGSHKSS
As to the kind of experiment: co-IP; lysate of co-transfected HEK 293S cells (20 mM HEPES pH 7.5, 150 mM NaCl, 10% glycerol, 0.2% Triton X-100), GFP-tagged bait captured on GFP nanobody-conjugated resin, 30 min at 4 °C, washed in 0.1% Triton X-100, western blot for GFP, Myc and HA.

Chains of the proteins cited; added tags and fusions are not shown.
UniProt P56395: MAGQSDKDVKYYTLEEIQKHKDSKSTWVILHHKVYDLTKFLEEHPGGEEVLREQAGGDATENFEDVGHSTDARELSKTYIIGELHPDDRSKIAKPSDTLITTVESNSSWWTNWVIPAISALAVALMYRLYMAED

In experiment [2] the target is Myc-cyt b5 (mouse cytochrome b5 with an N-terminal Myc tag) (mouse) (UniProt P56395). As to the kind of experiment: co-IP; lysate of co-transfected HEK 293S cells (0.2% Triton X-100), Myc-cyt b5 captured with rabbit anti-Myc antibodies and protein A agarose, 30 min at 4 °C, western blot. A general note: A western blot detects proteins with antibodies after separation by electrophoresis.

These are yes or no findings as the source states them, for the method shown. In cells and extracts the contact can be indirect. Some results given as binding are weak or reduced against the parent protein; the word gives no strength. Where a sequence is shown, tags or fusion partners need not be part of it.

As for “Myc-cyt b5 (mouse cytochrome b5 with an N-terminal Myc tag) (from UniProt P56395 1-134)”, the binding result in experiment [1] is on record as “binds”.

B1: HA-b5R (mouse cytochrome b5 reductase with an N-terminal HA tag) (enzyme, UniProt Q9DCN2 1-301)
chain: MGAQLSTLSHVVLSPVWFIYSLFMKLFQRSTPAITLENPDIKYPLRLIDKEVISPDTRRFRFALPSPQHILGLPIGQHIYLSTRIDGNLVIRPYTPVSSDDDKGFVDLVVKVYFKDTHPKFPAGGKMSQYLENMKIGDTIEFRGPNGLLVYQGKGKFAIRADKKSNPVVRTVKSVGMIAGGTGITPMLQVIRAVLKDPNDHTVCYLLFANQSEKDILLRPELEELRNEHSARFKLWYTVDKAPDAWDYSQGFVNEEMIRDHLPTPGEEPLILMCGPPPMIQFACLPNLERVGHPKERCFTF
As to B1, the binding result in experiment [2] and in experiment [1] was “binds” in each case.

The record behind these values is article PMC9468158, “Transmembrane helices mediate the formation of a stable ternary complex of b5R, cyt b5, and SCD1” (Communications Biology, 2022).
